{"source": "PubChem BioAssay AID504444", "about": "(National Center for Advancing Translational Sciences (NCATS), 2011)", "note": "The whole screen tested about 360,000 compounds, of which about 7,500 (2.1%) were called active. The shares of active, inactive and inconclusive entries below differ from those in the screen. Calls come from the whole dose curve; as a rule, active = well fitted inhibition curve with a large enough effect; inconclusive = small, poorly fitted or top-dose-only effect, or effect the other way; inactive = flat fitted curve, though single readings scatter. Potencies beside an inconclusive call are fits to weak or partial responses and may not hold up. % is set by controls: 0 for no effect and ±100 for the full control effect; potency is the fitted concentration of half-maximal effect."}
{"assay": "Nrf2 qHTS screen for inhibitors; note: nearly all actives have a fitted effect of over 60% in size", "conditions": "A549 ARE-Fluc reporter, luciferase luminescence, 18-24 h; activity change, negative = inhibition: at 46 µM (top of the series)", "outline": "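Reporter: ARE-Fluc in A549. Exposure: 18-24 h, 37 °C, 5% CO2, 5% FBS OPTI-MEM. Readouts: fluorescent cytotoxicity (CellTiter-Fluor), then luminescent Nrf2 signal after BugLite.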"}
{"smiles": "CCOC(=O)c1c(NC(=O)C[n+]2ccc(Cc3ccccc3)cc2)sc(C)c1C", "activity change, negative = inhibition": "inactive: -3.82%"}
{"smiles": "CCOc1ccc(CCNC(=O)c2ccc3nc(N4CCC(C)CC4)sc3c2)cc1OCC", "Potency": "inconclusive: 1.3 µM [activator, partial curve, poor fit]"}
{"smiles": "CCOC(=O)c1[nH]c2ccc(Cl)cc2c1NC(=O)c1nonc1C", "Potency": "inconclusive: 6.51 µM [activator, single point]"}
{"smiles": "O=C(C1CCCN(Cc2ccc(Br)cc2)C1)N1CCCCC1", "note": "(centres undefined)", "Potency": "inconclusive: 29.1 µM [falling, single point]"}
{"smiles": "CC(C)Cn1c(=O)c2c(nc3n2CCCN3Cc2ccccc2)n(C)c1=O", "Potency": "active: 11.6 µM"}
{"smiles": "Cc1cccc(CSc2nnc(NC(=O)c3ccco3)s2)c1", "Potency": "inconclusive: 0.0041 µM [activator, full curve, poor fit]"}
{"smiles": "COc1ccc(Cl)cc1NC(=O)CN1CCC(n2nnc3ccccc32)CC1", "activity change, negative = inhibition": "inactive: -2.74%"}
{"smiles": "CSCCC(NS(=O)(=O)c1ccc(C)cc1)C(=O)N1CCCCCCC1", "note": "(centres undefined)", "activity change, negative = inhibition": "inactive: 7.96%"}
{"smiles": "CCCCCOc1ccc(Br)cc1CSC(=N)N", "Potency": "inconclusive: 9.2 µM [falling, partial curve]"}
{"smiles": "O=[N+]([O-])c1ccc2nc(NS(=O)(=O)c3ccc(F)cc3)sc2c1", "Potency": "inconclusive: 29.1 µM [falling, single point]"}
{"smiles": "Nc1cc(C(=O)OCC(=O)NCC2CCCO2)ccc1Cl", "note": "(centres undefined)", "Potency": "inconclusive: 4.11 µM [activator, full curve, poor fit]"}
{"smiles": "CN(Cc1ccc(OC(F)F)cc1)C(=O)C1CCN(S(=O)(=O)c2ccc3c(c2)OCCO3)CC1", "Potency": "active: 23.1 µM"}
{"smiles": "CC(=O)Nc1ccc(S(=O)(=O)Nc2nc3ccccc3nc2Nc2ccc3ccccc3c2)cc1", "activity change, negative = inhibition": "inactive: 15%"}
{"smiles": "COc1ccc(NC(=O)c2ccc(COc3ccccc3Br)o2)c(OC)c1", "Potency": "inconclusive: 16.4 µM [falling, single point]"}
{"smiles": "COc1cc(C(=O)NCc2ccc(C(=O)NCC(OC)OC)cc2)cc(OC)c1OC", "activity change, negative = inhibition": "inactive: -12.6%"}
{"smiles": "C/C(=N/NC(=O)COc1cc(C)ccc1C(C)C)C(=O)O", "Potency": "inconclusive: 23.1 µM [activator, partial curve, poor fit]"}
{"smiles": "COc1cccc(NC(=O)c2ccc3c(c2)CCCC3)c1", "Potency": "inconclusive: 2.59 µM [activator, partial curve, poor fit]"}
{"smiles": "COc1ccc(Cl)cc1NC(=O)c1cc(S(=O)(=O)N2CCCC2)cn1C", "Potency": "inconclusive: 0.0052 µM [falling, full curve, poor fit]"}
{"smiles": "O=C1CCCC(O)=C1C=Nc1cccc(C(F)(F)F)c1", "Potency": "inconclusive: 1.3 µM [falling, partial curve, poor fit]"}
{"smiles": "Cc1ccc(Cn2c(SCc3ccc(C(=O)O)cc3)nc3cccnc32)cc1", "activity change, negative = inhibition": "inactive: 13.4%"}
{"smiles": "CC(NC(=O)C1CCCC1)C1CC2CCC1C2", "note": "(centres undefined)", "Potency": "inconclusive: 14.6 µM [activator, partial curve, poor fit]"}
{"smiles": "N/C(=N\\OC(=O)CCCOc1ccccc1)c1cccc([N+](=O)[O-])c1", "activity change, negative = inhibition": "inactive: -6.53%"}
{"smiles": "Cc1ccc(C)c(N2CCN(C(=O)c3ccc(NS(=O)(=O)c4c(C)noc4C)cc3)CC2)c1", "Potency": "inconclusive: 20.6 µM [falling, partial curve, poor fit]"}
{"smiles": "COC(=O)c1[nH]c2cc(C)ccc2c1NC(=O)CN1CCc2cc(OC)c(OC)cc2C1", "Potency": "inconclusive: 23.1 µM [falling, partial curve, poor fit]"}
{"smiles": "O=S(=O)(Nc1ccc2c(c1)nc1n2CCN(Cc2ccccc2)C1)c1ccc(Cl)cc1", "Potency": "active: 13 µM"}
{"smiles": "Cc1ccc(NC(=O)CS(=O)(=O)c2c[nH]c3ccccc23)c(C)c1", "Potency": "inconclusive: 0.058 µM [falling, full curve]"}
{"smiles": "CCN(CC)CCNC(=O)c1cc2c(-c3ccc(Cl)cc3)nn(C)c2s1", "activity change, negative = inhibition": "inactive: 19.5%"}
{"smiles": "COc1ccc(Cn2c(CCC(=O)Nc3cc(C)cc(C)c3)nc3cccnc32)cc1", "Potency": "inconclusive: 29.1 µM [falling, single point]"}
{"smiles": "Cc1cc2c(nc1C)CCCN2C[C@@H](C)O/N=C1/[C@H]2CCn3c(=O)n(-c4ccccc4)c(=O)n3[C@H]2[C@H](O)[C@@H]2O[C@H]12", "Potency": "inconclusive: 7.31 µM [falling, partial curve]"}
{"smiles": "Cc1onc(-c2ccccc2)c1C(=O)N=C(N)c1ccc(Cl)cc1", "Potency": "inconclusive: 29.1 µM [activator, partial curve, poor fit]"}
{"smiles": "CCN1CCN(C(=O)c2c(-c3c(Cl)cccc3Cl)noc2C)CC1", "activity change, negative = inhibition": "inactive: 7.24%"}
{"smiles": "CCOc1ccc2nc(N3C(=O)/C(=C/c4ccc(Cl)cc4)NC3=S)sc2c1", "Potency": "inconclusive: 29.1 µM [activator, single point]"}
{"smiles": "CC(C)c1ccc(NC(=S)NC2CCN(Cc3ccccc3)CC2)cc1", "Potency": "inconclusive: 29.1 µM [falling, single point]"}
{"smiles": "Cn1cc(Cl)c(C(=O)Nc2cccc(Cl)c2Cl)n1", "Potency": "inconclusive: 16.4 µM [activator, partial curve]"}
{"smiles": "CCOC(=O)c1sc2nc(CC(=O)OC)nc(NCc3ccc(F)cc3)c2c1C", "Potency": "active: 10.3 µM"}
{"smiles": "CC(C)Oc1ccc(CSc2ncn[nH]2)cc1", "Potency": "inconclusive: 2.06 µM [activator, partial curve, poor fit]"}
{"smiles": "CC1(C)CC(=O)c2sc(NC(=O)C3COc4ccccc4O3)nc2C1", "note": "(centres undefined)", "Potency": "inconclusive: 6.51 µM [activator, partial curve]"}
{"smiles": "COc1cc(OC)cc(C(=O)Nc2cc(NC(=O)c3ccco3)ccc2OC)c1", "activity change, negative = inhibition": "inactive: -28.7%"}
{"smiles": "COc1ccc(NC(=O)c2ccco2)cc1NC(=O)c1cccc(C)c1OC", "Potency": "inconclusive: 4.11 µM [falling, partial curve]"}
{"smiles": "CC(C)OC(=O)c1c2c(n3ccccc13)C(=O)c1ccccc1C2=O", "Potency": "inconclusive: 20.6 µM [falling, single point]"}
{"smiles": "O=C(O/N=C(/c1ccccc1)c1ccncc1)c1ccc(F)cc1", "Potency": "inconclusive: 23.1 µM [activator, single point]"}
{"smiles": "Cc1cccc(NC(=O)c2ccc(S(=O)(=O)N3CCC(C)CC3)cc2)n1", "Potency": "active: 14.6 µM"}
{"smiles": "Cc1ccc(Cl)cc1N(C)C(=O)c1sc2nc3n(c(=O)c2c1C)CCCC3", "activity change, negative = inhibition": "inactive: -5.77%"}
{"smiles": "Fc1ccc(-c2cnc[nH]2)cc1", "Potency": "inconclusive: 20.6 µM [activator, single point]"}
